Test results reported in PubChem BioAssay AID2685 (National Center for Advancing Translational Sciences (NCATS), 2010).
The other results are listed elsewhere or left out. These are further read-outs of the screen, such as a control signal, another cell line or another target. No call is given for them. Compounds called inactive in the main read-out are mostly missing here. Potencies come from curve fits of mixed quality, noted in brackets.

Assay: qHTS Assay for Lipid Storage Modulators in Drosophila S3 Cells;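 on cell number change: cells counted by Cell Tracker Red CMTPX staining in the red channel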
Details: BODIPY lipid droplet fluorescence, 18-24 h; for cell number change: measured here: cell count max response, cells fed with added oleic acid
Outline: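 Drosophila S3 cells loaded with oleic acid (400 uM, as added) and compounds at several concentrations; lipid droplets imaged by 488-nm laser-scanning cytometry, 500–530 nm intensity and object ratio to cell channel. Percent activity normalized to 20 uM Triacsin C.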

[1] = measured here: cell number channel AC50, cells fed with added oleic acid
[2] = measured here: lipid fluorescence (Fed channel) AC50, cells fed with added oleic acid

Structure (SMILES) | cell number change | AC50 [1] | AC50 [2]
CCOC(=O)COc1nc(C)c(Br)c(OC)n1 | 56.8% | 16.4 µM [rising, single point] | 7.31 µM [rising, partial curve]
O=C(c1ccc(NS(=O)(=O)c2ccc3[nH]c(=O)[nH]c3c2)cc1)N1CCN(c2ccccc2)CC1 | 8.08% |  | 2.06 µM [rising, partial curve, poor fit]
COc1cc(C(=O)N2CCN(C)C(C)C2)ccc1OC1CCN(C(C)=O)CC1 (configuration not stated) | -21.6% |  | 1.46 µM [falling, partial curve, poor fit]
CCn1c(SCC(=O)N2CCc3ccccc32)nnc1-c1c[nH]c2ccccc12 | -49% | 5.8 µM [falling, full curve] | 5.17 µM [falling, full curve]
CC(C)(C)N1CC(C(=O)O)CC1=O (configuration not stated) | 22.3% |  | 18.4 µM [falling, single point]
COc1ccccc1NS(=O)(=O)CC12CCC(CC1=O)C2(C)C (configuration not stated) | -0.365% |  | 1.84 µM [rising, full curve]
C=CCc1cc(/C=C/c2nc(O)c([N+](=O)[O-])c(=O)[nH]2)cc(OC)c1O | -20.3% | 0.731 µM [falling, full curve, poor fit] | 23.1 µM [falling, single point]
CCOC(=O)C(NC(=O)c1ccccc1Cl)(Nc1ccc(C(F)(F)F)cc1)C(F)(F)F (configuration not stated) | -45.4% | 18.4 µM [falling, single point] | 5.17 µM [falling, full curve]
CCCCN(CCCC)C(=O)c1cc(Cl)ccc1[N+](=O)[O-] | 130% | 25.9 µM [rising, partial curve] | 6.51 µM [falling, single point]
CCCN1Cc2cccc(C(=O)NCc3ccc4c(c3)OCO4)c2C1=O | 4.33% |  | 0.461 µM [rising, full curve]
COc1ccc(NC(=O)CSc2ccc3c4c(cccc24)C(=O)c2ccccc2-3)cc1 | 28.2% |  | 3.66 µM [falling, full curve, poor fit]
COc1ccc(C(=O)C2CCN(C(=O)c3ccc(F)cc3)CC2)cc1 | -16.5% |  | 0.58 µM [rising, full curve]
C=CCOc1ccc(/C=N/NC(=O)c2c(C)nc3ccc(Cl)cn23)cc1 | 20.7% |  | 0.206 µM [rising, full curve, poor fit]
CCC(C)n1c(/C=C/c2ccccc2)nc2ccccc21 (configuration not stated) | 10.1% | 0.651 µM [falling, single point] | 1.16 µM [falling, single point]
CCOc1ccc(NC(=O)C(CC(=O)O)Cc2ccc(Br)cc2)cc1 (configuration not stated) | -11.9% |  | 4.11 µM [falling, full curve]
CCCCc1cc(=O)oc2cc(OCC(=O)NCc3ccccn3)c(Cl)cc12 | -16.2% | 4.61 µM [falling, partial curve, poor fit] | 2.31 µM [falling, partial curve]
Cc1ccc(S(=O)(=O)N2CCC(=O)CC2)cc1 | -32.1% | 1.26 µM [falling, full curve] | 1 µM [falling, full curve]
COCCCNC(=S)NNC(=O)c1ccccc1Br | 31.5% |  | 5.17 µM [rising, single point]
COc1ccc2c(c1)c(=O)c(C(=O)c1ccccc1)cn2Cc1ccccc1 | 15.1% | 0.0231 µM [rising, full curve, poor fit] | 0.651 µM [rising, partial curve, poor fit]

Structure (SMILES) | cell number change | AC50 [1] | AC50 [2]
COc1ccc(C)cc1-n1nnnc1SCC(=O)N1CCC(C(=O)Nc2nccs2)CC1 | -19.5% |  | 
Cc1ccc(NC(=O)CSC2=C(C#N)C(c3ccco3)CC(=O)N2)cc1 (configuration not stated) | 4.17% |  | 0.58 µM [rising, single point]
O=C(NC(CO)Cc1ccc([N+](=O)[O-])cc1)C(Cl)Cl (configuration not stated) |  | 6.51 µM [rising, single point] | 3.66 µM [rising, single point]
Cc1ccc2occ(C(=O)c3ccco3)c(=O)c2c1 | 55.6% | 29.1 µM [rising, single point] | 
COc1ccccc1CNC(=O)CC1C(=O)NCCN1C1Cc2ccccc2C1 (configuration not stated) | -6.93% |  | 1.84 µM [falling, single point]
OC1(Cc2cc(-c3ccccc3)no2)CCN(CCCc2ccccc2)CC1 | 27.4% |  | 23.1 µM [rising, single point]
COc1ccc(S(=O)(=O)N2CCCC2)c(C)c1C |  |  | 3.66 µM [rising, single point]
CCCc1cc(=O)oc2cc(C)cc(OC(C)C(=O)NCC(O)c3ccccc3)c12 (configuration not stated) | 23.9% |  | 
Cc1ccnc(NC(=O)CCC(=O)N(CC(=O)NCc2ccc(F)cc2)CC2CCCO2)c1 (configuration not stated) | -5.41% |  | 6.51 µM [rising, partial curve, poor fit]
CC(=O)NC(Cc1ccccc1)C(=O)OCC(=O)c1ccccc1 (configuration not stated) | -5.4% | 2.91 µM [rising, single point] | 6.51 µM [rising, single point]
O=C(Oc1ccc(=O)n(-c2ccccc2)n1)c1ccc(F)cc1 | -5.67% |  | 1.16 µM [falling, single point]
Cc1ccc(OCC(=O)N2CCc3ccccc32)cc1 | 66.7% | 18.4 µM [rising, single point] | 
O=C(/C=C/c1ccc(Cl)cc1)NCc1ccco1 |  |  | 1.84 µM [rising, partial curve]
CCCCN(CC(=O)Nc1cccc(S(=O)(=O)N2CCCC2)c1)Cc1nc2ccccc2c(=O)[nH]1 |  |  | 29.1 µM [falling, single point]
O=C(CC1C(=O)NCCN1Cc1c(F)cccc1Cl)NC1CCCC1 (configuration not stated) | 6.8% |  | 0.146 µM [rising, full curve, poor fit]
CC(C)CC(=O)Nc1nnc(S(=O)(=O)N2CCc3ccccc32)s1 | 18.9% |  | 25.9 µM [rising, single point]
CCOC(=O)C1(Cc2ccccc2Cl)CCN(S(C)(=O)=O)CC1 |  |  | 1.64 µM [rising, partial curve, poor fit]
CC1CCCN(CC(O)COc2ccc(-c3ccccc3)cc2)C1 (configuration not stated) | 14.5% |  | 
Cc1ccc(C(=O)N2CC(=O)Nc3ccc(F)cc3C2c2ccccc2)cc1[N+](=O)[O-] (configuration not stated) | 5.46% |  | 0.184 µM [rising, full curve, poor fit]

Structure (SMILES) | cell number change | AC50 [1] | AC50 [2]
COC(=O)c1ccccc1NC(=O)CN1CCN(Cc2ccccc2)CC1 | -25% |  | 
O=C(CSc1nc2ccccc2c(=O)[nH]1)Nc1ccc(Br)cc1 | 24.3% |  | 29.1 µM [rising, single point]
O=C(COc1ccccc1)N/N=C/c1ccc(O[C@@H]2O[C@H](CO)[C@@H](O)[C@H](O)[C@H]2O)cc1 | -16.7% | 0.0164 µM [falling, full curve, poor fit] | 
CCCNC(=O)c1ccccc1NS(=O)(=O)c1ccc2c(c1)OCCO2 | 2.84% |  | 13 µM [rising, partial curve]
Cc1ccc(N2C(S)=C(C#N)C(=O)NC23CCCCC3)cc1 | -7.14% | 4.11 µM [rising, single point] | 29.1 µM [falling, single point]
COc1ccc(NC(=S)NCc2ccccn2)cc1OC | 27.6% |  | 0.112 µM [rising, full curve, poor fit]
N#CCCN(C(=O)Cn1nc(C(=O)O)c2ccccc2c1=O)c1ccccc1 | 19.8% |  | 2.31 µM [falling, partial curve, poor fit]
CCCCN(C)CCCNC(=O)C1CC(=O)N(Cc2ccc(OC)cc2)C1 (configuration not stated) | 5.29% | 0.00517 µM [falling, full curve, poor fit] | 4.11 µM [falling, full curve, poor fit]
CC(C)(C)OC(=O)N/N=C\c1ccc(OC(=O)c2cccs2)cc1 | -30.6% | 32.6 µM [falling, partial curve, poor fit] | 36.6 µM [falling, partial curve, poor fit]
C=C1CN(Cc2ccccc2)S(=O)(=O)c2ccccc21 | 23.5% |  | 11.6 µM [rising, partial curve]
CCC1Oc2ccccc2N(CC(=O)NCCCN2CCCC2)C1=O (configuration not stated) | 14.4% |  | 
OCC[C@H]1C[C@H](O)[C@@H](O)[C@]2(OCc3ccccc32)O1 | -6.2% |  | 0.92 µM [rising, full curve, poor fit]
Cc1ccc(C(C[N+](=O)[O-])Sc2ccc(N)cc2)cc1 (configuration not stated) | -62% | 14.6 µM [falling, partial curve, poor fit] | 9.2 µM [falling, partial curve, poor fit]
Cc1ccc(NS(=O)(=O)c2c(C)[nH]c(C)c2C(=O)N2CCCC2)cc1 | 17.8% |  | 0.517 µM [rising, single point]
O=C1CCN(Cc2ccccc2)S(=O)(=O)c2ccc(F)cc21 | -12.3% |  | 2.91 µM [rising, partial curve, poor fit]
CCCOn1c(-n2nc(C)cc2C)nc2ccccc2c1=O | 31.5% | 1.84 µM [rising, full curve] | 2.06 µM [rising, partial curve]
Cn1cnnc1SCC(=O)Nc1ccc(Oc2ccccc2)cc1 | 14.4% |  | 
CCCc1ccc(C(=O)NNC(=O)c2ccc(Cl)cc2)cc1 | 4.01% |  | 0.461 µM [falling, full curve]

Among those listed so far, these have fluorine:
Structure (SMILES) | cell number change | AC50 [1] | AC50 [2]
CCOC(=O)C(NC(=O)c1ccccc1Cl)(Nc1ccc(C(F)(F)F)cc1)C(F)(F)F (configuration not stated) | -45.4% | 18.4 µM [falling, single point] | 5.17 µM [falling, full curve]
COc1ccc(C(=O)C2CCN(C(=O)c3ccc(F)cc3)CC2)cc1 | -16.5% |  | 0.58 µM [rising, full curve]
Cc1ccnc(NC(=O)CCC(=O)N(CC(=O)NCc2ccc(F)cc2)CC2CCCO2)c1 (configuration not stated) | -5.41% |  | 6.51 µM [rising, partial curve, poor fit]
O=C(Oc1ccc(=O)n(-c2ccccc2)n1)c1ccc(F)cc1 | -5.67% |  | 1.16 µM [falling, single point]
O=C(CC1C(=O)NCCN1Cc1c(F)cccc1Cl)NC1CCCC1 (configuration not stated) | 6.8% |  | 0.146 µM [rising, full curve, poor fit]
Cc1ccc(C(=O)N2CC(=O)Nc3ccc(F)cc3C2c2ccccc2)cc1[N+](=O)[O-] (configuration not stated) | 5.46% |  | 0.184 µM [rising, full curve, poor fit]
O=C1CCN(Cc2ccccc2)S(=O)(=O)c2ccc(F)cc21 | -12.3% |  | 2.91 µM [rising, partial curve, poor fit]

Single records (already shown):
OCC[C@H]1C[C@H](O)[C@@H](O)[C@]2(OCc3ccccc32)O1 in the list: cell number change: -6.2%; AC50 [2]: 0.92 µM [rising, full curve, poor fit]
CCCOn1c(-n2nc(C)cc2C)nc2ccccc2c1=O in the list: cell number change: 31.5%; AC50 [1]: 1.84 µM [rising, full curve]; AC50 [2]: 2.06 µM [rising, partial curve]
